## Percent effect of library compounds

The chains behind the UniProt entries cited, without tags or fusion partners. Residues count along the entry.
UniProt P9WNZ1, whole entry: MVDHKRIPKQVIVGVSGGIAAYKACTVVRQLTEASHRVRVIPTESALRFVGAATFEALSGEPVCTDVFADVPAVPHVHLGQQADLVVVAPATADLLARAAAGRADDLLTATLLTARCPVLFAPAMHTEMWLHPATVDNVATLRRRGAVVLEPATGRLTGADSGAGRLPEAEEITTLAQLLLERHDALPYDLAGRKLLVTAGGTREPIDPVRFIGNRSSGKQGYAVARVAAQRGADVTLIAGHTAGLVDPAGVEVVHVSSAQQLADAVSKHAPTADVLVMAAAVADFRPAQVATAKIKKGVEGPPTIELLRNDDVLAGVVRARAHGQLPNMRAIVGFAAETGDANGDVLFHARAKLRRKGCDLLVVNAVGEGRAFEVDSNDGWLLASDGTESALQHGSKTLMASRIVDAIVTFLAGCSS
UniProt I6X8D2, whole entry: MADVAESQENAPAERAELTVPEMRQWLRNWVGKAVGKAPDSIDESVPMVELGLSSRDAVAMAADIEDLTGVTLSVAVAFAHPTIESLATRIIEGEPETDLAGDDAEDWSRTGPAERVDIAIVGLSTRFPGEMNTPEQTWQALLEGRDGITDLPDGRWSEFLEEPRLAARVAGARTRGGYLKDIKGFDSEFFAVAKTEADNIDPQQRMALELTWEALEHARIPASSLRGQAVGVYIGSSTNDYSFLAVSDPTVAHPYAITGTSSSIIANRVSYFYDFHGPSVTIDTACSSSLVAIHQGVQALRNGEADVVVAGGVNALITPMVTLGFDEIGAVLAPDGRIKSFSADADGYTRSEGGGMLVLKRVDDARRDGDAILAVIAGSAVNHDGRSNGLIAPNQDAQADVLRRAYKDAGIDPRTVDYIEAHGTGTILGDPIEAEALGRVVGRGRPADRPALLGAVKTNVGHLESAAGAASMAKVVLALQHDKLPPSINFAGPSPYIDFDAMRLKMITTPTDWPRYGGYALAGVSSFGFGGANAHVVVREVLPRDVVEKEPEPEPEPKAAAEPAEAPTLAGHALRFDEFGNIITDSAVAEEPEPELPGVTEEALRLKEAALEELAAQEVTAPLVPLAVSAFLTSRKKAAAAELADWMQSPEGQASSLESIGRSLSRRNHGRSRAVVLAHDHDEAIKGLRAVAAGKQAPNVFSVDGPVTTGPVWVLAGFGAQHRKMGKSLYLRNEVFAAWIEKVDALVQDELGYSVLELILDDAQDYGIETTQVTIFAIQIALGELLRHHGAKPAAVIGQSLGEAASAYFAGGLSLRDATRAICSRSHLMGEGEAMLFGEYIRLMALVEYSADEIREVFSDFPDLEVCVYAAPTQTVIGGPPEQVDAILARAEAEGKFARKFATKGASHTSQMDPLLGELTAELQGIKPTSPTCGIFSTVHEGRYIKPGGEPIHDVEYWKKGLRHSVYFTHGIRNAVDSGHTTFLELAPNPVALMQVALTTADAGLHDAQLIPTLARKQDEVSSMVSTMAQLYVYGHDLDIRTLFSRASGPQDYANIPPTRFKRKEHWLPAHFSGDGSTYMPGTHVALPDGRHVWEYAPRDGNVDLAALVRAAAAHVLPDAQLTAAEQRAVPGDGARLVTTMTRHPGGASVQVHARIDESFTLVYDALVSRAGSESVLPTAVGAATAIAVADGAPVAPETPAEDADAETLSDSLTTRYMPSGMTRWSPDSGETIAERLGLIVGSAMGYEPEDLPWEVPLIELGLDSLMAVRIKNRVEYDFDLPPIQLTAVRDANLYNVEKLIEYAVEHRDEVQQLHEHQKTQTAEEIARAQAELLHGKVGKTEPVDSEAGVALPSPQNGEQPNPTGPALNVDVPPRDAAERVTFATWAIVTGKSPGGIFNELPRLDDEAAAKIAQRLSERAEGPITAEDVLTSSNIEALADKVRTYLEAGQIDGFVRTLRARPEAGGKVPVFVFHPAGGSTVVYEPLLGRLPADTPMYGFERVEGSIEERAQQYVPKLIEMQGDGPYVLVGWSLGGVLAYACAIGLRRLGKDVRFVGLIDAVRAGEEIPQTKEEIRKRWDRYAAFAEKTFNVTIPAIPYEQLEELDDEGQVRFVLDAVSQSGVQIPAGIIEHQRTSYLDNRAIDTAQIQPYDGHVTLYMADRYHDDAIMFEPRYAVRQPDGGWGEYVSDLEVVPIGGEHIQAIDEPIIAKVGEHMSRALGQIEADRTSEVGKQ
UniProt P9WFT3, whole entry: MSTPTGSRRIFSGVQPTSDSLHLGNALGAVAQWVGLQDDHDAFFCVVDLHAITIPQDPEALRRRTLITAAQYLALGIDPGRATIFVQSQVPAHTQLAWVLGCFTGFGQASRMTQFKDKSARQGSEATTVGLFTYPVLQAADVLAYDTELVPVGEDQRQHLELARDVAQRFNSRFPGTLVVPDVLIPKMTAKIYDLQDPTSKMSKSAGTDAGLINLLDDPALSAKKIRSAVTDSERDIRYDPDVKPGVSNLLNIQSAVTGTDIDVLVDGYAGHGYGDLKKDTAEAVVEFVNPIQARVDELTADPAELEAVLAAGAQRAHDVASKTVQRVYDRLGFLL
UniProt A4I591, 1-473: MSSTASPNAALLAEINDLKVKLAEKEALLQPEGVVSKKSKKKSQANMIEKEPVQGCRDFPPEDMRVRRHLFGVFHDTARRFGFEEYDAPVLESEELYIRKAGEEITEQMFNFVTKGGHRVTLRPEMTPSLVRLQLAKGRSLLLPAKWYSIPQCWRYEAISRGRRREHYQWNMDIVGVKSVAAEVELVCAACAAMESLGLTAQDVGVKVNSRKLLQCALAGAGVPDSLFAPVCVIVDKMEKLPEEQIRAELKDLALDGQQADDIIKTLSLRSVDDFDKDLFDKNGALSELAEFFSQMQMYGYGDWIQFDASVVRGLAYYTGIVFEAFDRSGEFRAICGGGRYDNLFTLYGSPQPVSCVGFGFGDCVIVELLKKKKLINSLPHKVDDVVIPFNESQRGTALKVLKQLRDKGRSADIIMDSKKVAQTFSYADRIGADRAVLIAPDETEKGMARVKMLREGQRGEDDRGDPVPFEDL

Source: ChEMBL document CHEMBL3988442, “University of Dundee, Small-Polar-MMV Screening Library” (2021).

The filed quantity is “Percent Effect” (%).
How 0% and 100% were set is not recorded. Most values in the screen are low, and negative values occur.
This is an unselected part of the compounds tested.
Two or more numbers in one place are separate tests of the same structure; such repeats can differ widely.
A dash means the value is not listed here; it may have been measured.

A: 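Enzyme assay of CoaBC with a phosphate dye (Biomol Green) read at 650 nm. Target: Coenzyme A biosynthesis protein CoaBC, Mycobacterium tuberculosis (UniProt P9WNZ1). Concentration: 30 µM. Higher reads as stronger inhibition, judged from the few compounds that gave an IC50. Most strong results did not repeat in a second test. Of about 67,000 compounds tested this way, about 40 (0.06%) reached 50% or more in at least one test.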
B: 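Polyketide synthase Pks13, Mycobacterium tuberculosis (UniProt I6X8D2). Enzyme assay of the thioesterase domain of polyketide synthase 13; the read-out is not stated. Concentration: 30 µM. Higher reads as stronger inhibition (inferred from which compounds were picked for retests). Of about 67,000 compounds tested this way, about 300 (0.46%) reached 50% or more in at least one test.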
C: 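Tryptophan-tRNA ligase, Mycobacterium tuberculosis (UniProt P9WFT3). Enzyme assay of tryptophanyl-tRNA synthetase; the read-out is not stated. Concentration: 10 µM. Direction is not recorded; retested compounds ran higher, which suggests that high means inhibition. Of about 65,000 compounds tested this way, about 64 (0.098%) reached 50% or more in at least one test.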
D: 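Histidine-tRNA ligase, Leishmania infantum (UniProt A4I591). Enzyme assay of histidyl-tRNA synthetase; the read-out is not stated. Compounds at 30 µM. Direction is inferred from retests: higher values go with stronger inhibition. The assay is labelled LdHisRS but filed under L. infantum. Size under these conditions: about 69,000 compounds, about 410 of them at 50% or above in at least one test.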

| structure | A | B | C | D |
|---|---|---|---|---|
| `c1nc(COCC2CC2)c2n1CCCN(CC1CC1)C2` | 4.442% | -5.785% | -2.204% | 7.547% |
| `N#Cc1cccnc1NCc1cccc(C(=O)NCC2CCCCO2)c1` (centres unmarked) | - | -13.99% | -2.27% | 14.17% |
| `O=C(NCC1CCCN1CCc1ccccc1)NCC1(O)CCC1` (centres unmarked) | 4.808% | -15.65% | 0.7991% | 6.25% |
| `Cc1ncsc1C(=O)NC1CCN(CC(N)=O)CC1` | 2.216% | -5.072% | -3.948% | 6.14% |
| `CCN(CC)C(=O)c1c(Br)cnn1CC` | 1.35% | 3.386% | - | 6.186% |
| `O=C(COc1cccc(F)c1)N1C[C@@H](CN2CCCC2)C[C@H](CO)C1` | -0.2105% | -6.501% | -1.319% | 11.32% |
| `Cc1nn(C)c(C)c1-c1cnc(CC2CCNCC2)cn1` | 10.49% | -1.178% | -3.981% | 11.35% |
| `CCc1ccc(CNC(=O)Cn2ccc3sccc3c2=O)cc1` | 0.6053% | -3.376% | -0.6221% | 7.609% |
| `O=C(CC1CCCC1)N1C[C@H](Oc2cccnc2)[C@H]2OCCC[C@H]21` | 7.294% | -7.321% | -2.985% | -2.752% |
| `CC(=O)N1CC[C@H]2CC(=O)N(C3CC3)CC[C@H]2C1` | 5.192% | 3.667% | 3.991% | 22.22% |
| `COCCN1CC[C@]2(CN(Cc3cccnc3)C[C@H]2C)C1=O` | 1.882% | -6.753% | -3.814% | 6.422% |
| `Cc1nn(C)cc1CN(C)Cc1cc2c(cc1OC(F)F)OCO2` | -6.167% | -7.871% | -1.676% | 0% |
| `CC(C)(C)C(=O)N1CCC(n2cc(C3(O)CCCC3)nn2)CC1` | - | -39.95% | 2.58% | 22.86% |
| `c1ccc(CNCC2Cn3nnc(-c4ccncc4)c3CO2)nc1` (centres unmarked) | 4.44% | -29.67% | -2.185% | 12.28% |
| `Cc1noc(CN2CCN(CCO)CC2)n1` | -4.721% | 0.8338% | -6.772% | 8.197% |
| `Cc1cc(NC(=O)CN(CC(C)O)c2ccccc2)on1` (centres unmarked) | 0.4914% | -1.474% | -8.846% | 15.05% |
| `Cc1noc(C)c1CCCNc1cnccn1` | 4.245% | -4.816% | -3.233% | 12.09% |
| `CN(C)CCn1cc(NC(=O)NC(C)(C)c2nccs2)cn1` | 6.746% | -5.433% | -2.414% | 8.036% |
| `Cc1ccsc1CN(Cc1nc2c(cnn2C)c(=O)[nH]1)C(C)C` | 2.632% | -35.98% | -5.08% | 12.04% |
| `CCC(NC(=O)c1cc(CC(C)C)nn1C)c1cccc(C)n1` (centres unmarked) | 20.7% & 7.407% | -4.58% | 12.76% | 10.53% |
| `CCN(CCN(C)C)c1nc(CCN)nc2sc(C)c(C)c12` | -15.07% | -4.554% | -2.261% | 53.98% |
| `Cc1cc(N(C)C)nc(C2CCCN2)n1` (centres unmarked) | 5.361% | 7.629% | -0.07807% | -1.418% |
| `Cn1ccnc1CN1CCc2onc(COCC3CC3)c2C1` | 0.1212% | 11.95% | - | 9.615% |
| `CCn1cc(CN2CCc3nc(N4CCOCC4)nc(O)c3CC2)cn1` | -1.389% | -29.32% | -0.2508% | 19.44% |
| `Cn1cc(CNS(=O)(=O)c2cc(F)ccc2F)cn1` | -2.851% | 4.153% | -1.09% | -2.941% |
| `COc1cc2c(cc1OC)C(=O)C(Sc1nncn1C)C2` (centres unmarked) | 0.241% | 3.143% | 0.4531% | 12.09% |
| `CC(=O)N[C@@H]1CN(C(=O)c2cc3sccc3[nH]2)C[C@H]1c1ccc(C)o1` | 4.808% | -17.1% | -0.4566% | 8.333% |
| `Cc1c(C2=NS(=O)(=O)N(C)C(C(=O)Nc3ccc(Br)cc3)=C2)cnn1C` | 1.663% | 47.05% | 6.861% | -7.042% |
| `Cc1cnn(C2CCCN(C(=O)c3ccc(-n4cnnn4)cc3)C2)c1` (centres unmarked) | 2.368% | -19.72% | -0.4011% | 13.89% |
| `Cc1cnn(CC(C)Nc2nc(C)cc(N(C)C)n2)c1` (centres unmarked) | 3.113% | -13.83% | -1.899% | 6.306% |
| `CCCn1cc(C(=O)N[C@H]2CC[C@H](n3cnnc3)CC2)c(C)n1` | -4.704% | -3.115% | 2.536% | 18.4% |
| `Cn1cc(CN2C[C@@H]3COC[C@]3(COc3ccc(C#N)cn3)C2)cn1` | 13.12% | -10.7% | -1.069% | 11.43% |
| `CCOCCCC(=O)N1CCN(c2cccc(OC)c2)C(C)C1` (centres unmarked) | 1.992% | 12.85% | -2.77% | 19.18% |
| `Cc1ccc(C(=O)NC2CCN(C(=O)Nc3ccccn3)CC2)s1` | 2.611% | -12.92% | 13.79% | 0.885% |
| `Cn1cnc(S(=O)(=O)N2CCCn3cnc(CN4CCCC4)c3C2)c1` | -10.42% | -35.1% | 0.6509% | 11.43% |
| `Fc1cccnc1N1CCC(NCc2cccc3cn[nH]c23)C1` (centres unmarked) | 5.976% | -7.171% | 1.433% | 24.66% |
| `CN(C)C(CNc1c(NCc2ccco2)c(=O)c1=O)c1ccccc1` (centres unmarked) | 0.2421% | 4.657% | 1.834% | 2.174% |
| `Cc1nn(C)c(C)c1C(C)NC(=O)Nc1cccnc1N1CCCC1` (centres unmarked) | 3.677% | 4.601% | -1.174% | 11.9% |
| `Cc1ncc(C)c(N2CCC(CCc3ccccc3)(C(=O)O)CC2)n1` | 2.829% | -32.74% | -3.762% | 17.74% |
| `COc1ccc(S(=O)(=O)NC(=O)C(C)OC)c(OC)c1` (centres unmarked) | 4.791% | -14.56% | 0.5747% | 13.95% |
| `O=C(C1CCOC1)N1C[C@H]2CN(c3ccccc3)C(=O)[C@H]2C1` (some centres unmarked) | -11.68% | -14.73% | -1.784% | 11.84% |
| `Cc1nn(C(C)C)c(C)c1NC(=O)c1cccnc1` | -4% | -5.877% | -0.1347% | 20.97% |
| `COCc1noc(-c2ccc(N3CCCC3c3nccs3)nc2)n1` (centres unmarked) | 1.984% | -20.49% | 4.131% | -5.556% |
| `O=C(NC1(c2nnn(CCO)n2)CCCC1)c1ccccc1` | 4.464% | -13.54% | -0.7105% | 22.33% |
| `CC(=O)N1[C@H](CN(C)C)C[C@@H]2CN(c3ncc(F)cn3)CC[C@@H]21` | -14.17% | -26.3% | 1.199% | 14.53% |
| `O=C1COc2cc(S(=O)(=O)NCCC3=CCCCC3)c(Cl)cc2N1` | -2.542% | -0.3894% | -0.7776% | -1.087% |
| `Cc1cc(N2CCC(N(C)C(=O)c3ccccc3F)CC2)nc(C)n1` | -0.6329% | -14.67% | 1.768% | 20.48% |
| `O=c1oc(-c2cccs2)nn1CC(O)c1ccc(F)cc1` (centres unmarked) | -12.95% | -4.325% | 1.954% | 18.45% |
| `Cc1cnc2n(c1=O)C(CC(=O)NCc1ccccc1Cl)CS2` (centres unmarked) | 1.805% | -7.86% | 2.201% | 20.22% |
| `COc1ccccc1Oc1ncccc1CNC(=O)CN1CCCC1=O` | 1.951% | -13.22% | -0.9029% | 9.6% |
| `O=C(COCC1CCCO1)N1CCCN(Cc2ccccc2F)CC1` (centres unmarked) | 7.613% | -23.84% | -5.734% | 7.527% |
| `Fc1cccc(-c2n[nH]cc2-c2nc(CN3CCOCC3)no2)c1` | -2.826% | -11.42% | -1.232% | 3.101% |
| `CC(C)n1nc(Cn2cccn2)c2c1CN(C1CCOCC1)C2` | -3.462% | -19.43% | -3.787% | 18.42% |
| `Cc1ccc(N(C)CC(O)COCc2ccccc2)c(C)c1` (centres unmarked) | -10.92% | -31.82% | -0.6731% | 15.52% |
| `CC(C)N1CCC(CNC(=O)COc2ccc(F)cc2F)C1` (centres unmarked) | -4.95% | -23.66% | -1.729% | 26% |
| `c1cnc(N2CCCC3(CN(CC4CCOCC4)CCO3)C2)cn1` (centres unmarked) | 5.212% | -24.52% | -5.045% | 22.86% |
| `O=C(c1c[nH]c2ncccc12)N1CCC(COc2ccccc2)CC1` | - | -4.318% | 3.922% | 2.5% |
| `Cc1ccc(S(=O)(=O)Nc2ccc(=O)n(C)c2)c(Br)c1` | 5.357% | -23.59% | 4.545% | 32.73% |
| `O=c1[nH]c(C2CCOC2)nc2ccc(Cl)cc12` (centres unmarked) | 6.88% | 2.443% | 2.614% | 11.9% |
| `Cc1c[nH]c(C(=O)N2CCn3nc(C(=O)NC4CC4)cc3C2)n1` | 2.484% | -52.63% | -0.8258% | 11.11% |

4 of the entries, repeated:

{"structure": "Cc1noc(CN2CCN(CCO)CC2)n1", "A": -4.721, "B": 0.8338, "C": -6.772, "D": 8.197}
{"structure": "Cc1ncsc1C(=O)NC1CCN(CC(N)=O)CC1", "A": 2.216, "B": -5.072, "C": -3.948, "D": 6.14}
{"structure": "CN(C)CCn1cc(NC(=O)NC(C)(C)c2nccs2)cn1", "A": 6.746, "B": -5.433, "C": -2.414, "D": 8.036}
{"structure": "O=C(c1c[nH]c2ncccc12)N1CCC(COc2ccccc2)CC1", "B": -4.318, "C": 3.922, "D": 2.5}